Measurements: patent US20160237044A1, “SUBSTITUTED PHENYLALANINE DERIVATIVES” (BAYER PHARMA AKTIENGESELLSCHAFT, priority 2013, published 2016)
Counter-ions that a name gives are not always drawn. At least one compound was matched to its structure with a doubt left.

Test system: plasma
Assay: Determination of anticoagulatory activity: activated partial thromboplastin time (aPTT) in plasma
Format: biochemical, human
Conditions: concentration of test substance which brings about a 1.5-fold extension of the aPTT, C.K. Prest kit, 37° C.
Procedure: a.4) Determination of Anticoagulatory Activity
The anticoagulatory activity of the test substances is determined in vitro in human and animal plasma (for example mouse, rat, rabbit, pig and dog plasma). To this end, blood is drawn off in a mixing ratio of sodium citrate/blood of 1:9 using a 0.11 molar sodium citrate solution as receiver. Immediately after the blood has been drawn off, it is mixed thoroughly and centrifuged at about 4000 g for 15 minutes. The supernatant is pipetted off.
The activated partial thromboplastin time (aPTT) is determined in the presence of varying concentrations of test substance or the corresponding solvent using a commercial test kit (C.K. Prest from Diagnostica Stago). The test compounds are incubated with the plasma and the PTT reagent (cephalin, kaolin) at 37° C. for 3 minutes. Coagulation is then started by addition of a 25 mM aqueous calcium chloride solution, and the time when coagulation occurs is determined. The concentration of test substance which brings about a 1.5-fold extension of the aPTT is determined.

In the case of NC[C@H]1CC[C@H](C(=O)N[C@@H](Cc2ccc(-c3ccc(N4CCOCC4)cc3)cc2)C(=O)Nc2ccc(-c3nn[nH]n3)cc2)CC1 [Example 5, trans-4-(Aminomethyl)-N-[(2S)-3-[4′-(morpholin-4-yl)biphenyl-4-yl]-1-oxo-1-{[4-(2H-tetrazol-5-yl)phenyl]amino}propan-2-yl]cyclohexanecarboxamide hydrochloride], the “Concentration for 1.5-fold aPTT extension” value is reported as 0.39 µmol/L.
With Cc1cc(NC(=O)CNC(=O)CNC(=O)CN)ccc1-c1ccc(C[C@H](NC(=O)[C@H]2CC[C@H](CN)CC2)C(=O)Nc2ccc(-c3nn[nH]n3)cc2)cc1 [Example 9, Glycylglycyl-N-{4′-[(2S)-2-({[trans-4-(aminomethyl)cyclohexyl]carbonyl}amino)-3-oxo-3-{[4-(2H-tetrazol-5-yl)phenyl]amino}propyl]-2-methylbiphenyl-4-yl}glycinamide hydrochloride] the “Concentration for 1.5-fold aPTT extension” value was 0.22 µmol/L.
